# Source: the supplement of paper PMC8728848
# This is one part of the list.
# B1: MFG-E8 (Mus musculus), P21956 (protein)
# chain: MQVSRVLAALCGMLLCASGLFAASGDFCDSSLCLNGGTCLTGQDNDIYCLCPEGFTGLVCNETERGPCSPNPCYNDAKCLVTLDTQRGDIFTEYICQCPVGYSGIHCETETNYYNLDGEYMFTTAVPNTAVPTPAPTPDLSNNLASRCSTQLGMEGGAIADSQISASSVYMGFMGLQRWGPELARLYRTGIVNAWTASNYDSKPWIQVNLLRKMRVSGVMTQGASRAGRAEYLKTFKVAYSLDGRKFEFIQDESGGDKEFLGNLDNNSLKVNMFNPTLEAQYIKLYPVSCHRGCTLRFELLGCELHGCSEPLGLKNNTIPDSQMSASSSYKTWNLRAFGWYPHLGRLDNQGKINAWTAQSNSAKEWLQVDLGTQRQVTGIITQGARDFGHIQYVASYKVAHSDDGVQWTVYEEQGSSKVFQGNLDNNSHKKNIFEKPFMARYVRVLPVSWHNRITLRLELLGC
# Experiments:
# Assay in all cases: glycan array binding signal (z-score within array); higher = stronger binding
# Conditions in all cases: glycan notation: IUPAC condensed, linker removed
# [1] = biological target: Glc(a1-6)Glc(a1-6)Glc(a1-6)Glc
# Outline: (§1)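 The binding signal is a Z-score computed within each array and averaged over linkers. Arrays of the same protein sequence at different concentrations or buffers were also averaged together. Data originate from 3228 arrays in the Consortium for Functional Glycomics database, kept only where the protein sequence was available.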
# Glc(b1-4)Glc = biological target: Glc(b1-4)Glc
# Outline: as §1
# Glc(b1-6)Glc = biological target: Glc(b1-6)Glc
# Outline: as §1
# GlcA(b1-3)Gal = biological target: GlcA(b1-3)Gal
# Outline: as §1
# GlcA(b1-3)GlcNAc = biological target: GlcA(b1-3)GlcNAc
# Outline: as §1
# GlcA(b1-6)Gal = biological target: GlcA(b1-6)Gal
# Outline: as §1
# [2] = biological target: GlcA3S(b1-3)Gal(b1-4)GlcNAc(b1-2)Man
# Outline: as §1
# [3] = biological target: GlcA3S(b1-3)Gal(b1-4)GlcNAc(b1-3)Gal(b1-4)Glc
# Outline: as §1
# [4] = biological target: GlcNAc(a1-3)Gal(b1-4)GlcNAc
# Outline: as §1
# [5] = biological target: GlcNAc(a1-4)Gal(b1-3)GlcNAc
# Outline: as §1
# [6] = biological target: GlcNAc(a1-4)Gal(b1-4)GalNAc
# Outline: as §1
# [7] = biological target: GlcNAc(a1-4)Gal(b1-4)GlcNAc
# Outline: as §1
# [8] = biological target: GlcNAc(a1-4)Gal(b1-4)GlcNAc(b1-3)Gal(b1-4)Glc
# Outline: as §1
# [9] = biological target: GlcNAc(a1-4)Gal(b1-4)GlcNAc(b1-3)Gal(b1-4)GlcNAc
# Outline: as §1
# [10] = biological target: GlcNAc(a1-4)Gal(b1-4)GlcNAc(b1-3)Gal(b1-4)GlcNAc(b1-3)Gal(b1-4)GlcNAc
# Outline: as §1
# [11] = biological target: GlcNAc(a1-4)Gal(b1-4)GlcNAc(b1-3)Gal(b1-4)[Fuc(a1-3)]GlcNAc(b1-3)Gal(b1-4)[Fuc(a1-3)]GlcNAc
# Outline: as §1
# [12] = biological target: GlcNAc(a1-6)Gal(b1-4)GlcNAc
# Outline: as §1
# [13] = biological target: GlcNAc(b1-2)Gal(b1-3)GalNAc
# Outline: as §1
# [14] = biological target: GlcNAc(b1-2)Man(a1-3)[GlcNAc(b1-2)Man(a1-6)]Man(b1-4)GlcNAc(b1-4)GlcNAc
# Outline: as §1
# [15] = biological target: GlcNAc(b1-2)Man(a1-3)[GlcNAc(b1-2)Man(a1-6)]Man(b1-4)GlcNAc(b1-4)[Fuc(a1-6)]GlcNAc
# Outline: as §1
# [16] = biological target: GlcNAc(b1-2)Man(a1-3)[GlcNAc(b1-4)][GlcNAc(b1-2)Man(a1-6)]Man(b1-4)GlcNAc(b1-4)GlcNAc
# Outline: as §1
# [17] = biological target: GlcNAc(b1-2)Man(a1-3)[GlcNAc(b1-4)][GlcNAc(b1-2)Man(a1-6)]Man(b1-4)GlcNAc(b1-4)[Fuc(a1-6)]GlcNAc
# Outline: as §1
# [18] = biological target: GlcNAc(b1-2)[GlcNAc(b1-4)]Man(a1-3)[GlcNAc(b1-2)Man(a1-6)]Man(b1-4)GlcNAc(b1-4)GlcNAc
# Outline: as §1
# [19] = biological target: GlcNAc(b1-2)[GlcNAc(b1-4)]Man(a1-3)[GlcNAc(b1-4)][GlcNAc(b1-2)Man(a1-6)]Man(b1-4)GlcNAc(b1-4)GlcNAc
# Outline: as §1
# [20] = biological target: GlcNAc(b1-2)[GlcNAc(b1-4)]Man(a1-3)[GlcNAc(b1-4)][GlcNAc(b1-2)[GlcNAc(b1-6)]Man(a1-6)]Man(b1-4)GlcNAc(b1-4)GlcNAc
# Outline: as §1
# [21] = biological target: GlcNAc(b1-2)[GlcNAc(b1-4)]Man(a1-3)[GlcNAc(b1-4)][GlcNAc(b1-2)[GlcNAc(b1-6)]Man(a1-6)]Man(b1-4)GlcNAc(b1-4)[Fuc(a1-6)]GlcNAc
# Outline: as §1
# [22] = biological target: GlcNAc(b1-2)[GlcNAc(b1-6)]Man(a1-6)[GlcNAc(b1-2)Man(a1-3)]Man(b1-4)GlcNAc(b1-4)GlcNAc
# Outline: as §1
# [23] = biological target: GlcNAc(b1-2)[GlcNAc(b1-6)]Man(a1-6)[GlcNAc(b1-2)Man(a1-3)]Man(b1-4)GlcNAc(b1-4)[Fuc(a1-6)]GlcNAc
# Outline: as §1
# [24] = biological target: GlcNAc(b1-2)[GlcNAc(b1-6)]Man(a1-6)[GlcNAc(b1-2)Man(a1-3)][GlcNAc(b1-4)]Man(b1-4)GlcNAc(b1-4)GlcNAc
# Outline: as §1
# [25] = biological target: GlcNAc(b1-2)[GlcNAc(b1-6)]Man(a1-6)[GlcNAc(b1-4)][GlcNAc(b1-2)Man(a1-3)]Man(b1-4)GlcNAc(b1-4)GlcNAc
# Outline: as §1
# GlcNAc(b1-3)Fuc = biological target: GlcNAc(b1-3)Fuc
# Outline: as §1
# GlcNAc(b1-3)Gal = biological target: GlcNAc(b1-3)Gal
# Outline: as §1
# [26] = biological target: GlcNAc(b1-3)Gal(b1-3)GalNAc
# Outline: as §1
# GlcNAc(b1-3)Gal(b1-4)Glc = biological target: GlcNAc(b1-3)Gal(b1-4)Glc
# Outline: as §1
# [27] = biological target: GlcNAc(b1-3)Gal(b1-4)GlcNAc
# Outline: as §1
# [28] = biological target: GlcNAc(b1-3)Gal(b1-4)GlcNAc(b1-2)Man(a1-3)[GlcNAc(b1-3)Gal(b1-4)GlcNAc(b1-2)Man(a1-6)]Man(b1-4)GlcNAc(b1-4)GlcNAc
# Outline: as §1
# [29] = biological target: GlcNAc(b1-3)Gal(b1-4)GlcNAc(b1-2)Man(a1-3)[GlcNAc(b1-3)Gal(b1-4)GlcNAc(b1-2)Man(a1-6)]Man(b1-4)GlcNAc(b1-4)[Fuc(a1-6)]GlcNAc
# Outline: as §1
binder,measurement,setting,value
B1,glycan array binding signal (z-score),[1],-0.038
same,glycan array binding signal (z-score),Glc(b1-4)Glc,-0.148
same,glycan array binding signal (z-score),Glc(b1-6)Glc,2.4
same,glycan array binding signal (z-score),GlcA(b1-3)Gal,-0.259
same,glycan array binding signal (z-score),GlcA(b1-3)GlcNAc,-0.503
same,glycan array binding signal (z-score),GlcA(b1-6)Gal,-0.784
same,glycan array binding signal (z-score),[2],0.754
same,glycan array binding signal (z-score),[3],-0.389
same,glycan array binding signal (z-score),[4],-0.136
same,glycan array binding signal (z-score),[5],-0.48
same,glycan array binding signal (z-score),[6],5.5
same,glycan array binding signal (z-score),[7],-0.566
same,glycan array binding signal (z-score),[8],0.036
same,glycan array binding signal (z-score),[9],0.443
same,glycan array binding signal (z-score),[10],0.185
same,glycan array binding signal (z-score),[11],0.423
same,glycan array binding signal (z-score),[12],-0.114
same,glycan array binding signal (z-score),[13],0.853
same,glycan array binding signal (z-score),[14],-0.045
same,glycan array binding signal (z-score),[15],-0.213
same,glycan array binding signal (z-score),[16],-0.607
same,glycan array binding signal (z-score),[17],-0.174
same,glycan array binding signal (z-score),[18],1.21
same,glycan array binding signal (z-score),[19],-0.227
same,glycan array binding signal (z-score),[20],-0.387
same,glycan array binding signal (z-score),[21],-0.153
same,glycan array binding signal (z-score),[22],0.452
same,glycan array binding signal (z-score),[23],1.93
same,glycan array binding signal (z-score),[24],0.127
same,glycan array binding signal (z-score),[25],-0.499
same,glycan array binding signal (z-score),GlcNAc(b1-3)Fuc,-0.349
same,glycan array binding signal (z-score),GlcNAc(b1-3)Gal,-0.534
same,glycan array binding signal (z-score),[26],-0.33
same,glycan array binding signal (z-score),GlcNAc(b1-3)Gal(b1-4)Glc,-0.131
same,glycan array binding signal (z-score),[27],-0.613
same,glycan array binding signal (z-score),[28],-0.422
same,glycan array binding signal (z-score),[29],-0.259

# 2 records picked at random from the list so far:
binder,measurement,setting,value
B1,glycan array binding signal (z-score),[17],-0.174
same,glycan array binding signal (z-score),[1],-0.038
